The values that follow come from US20050282818A1, “Ubiquitin ligase inhibitors” (Rigel Pharmaceuticals, Inc., priority 2004, published 2005).

Protein sequences, listed by entry. Tags and fused reporters are not part of them.
UniProt Q9Y4K3, whole entry: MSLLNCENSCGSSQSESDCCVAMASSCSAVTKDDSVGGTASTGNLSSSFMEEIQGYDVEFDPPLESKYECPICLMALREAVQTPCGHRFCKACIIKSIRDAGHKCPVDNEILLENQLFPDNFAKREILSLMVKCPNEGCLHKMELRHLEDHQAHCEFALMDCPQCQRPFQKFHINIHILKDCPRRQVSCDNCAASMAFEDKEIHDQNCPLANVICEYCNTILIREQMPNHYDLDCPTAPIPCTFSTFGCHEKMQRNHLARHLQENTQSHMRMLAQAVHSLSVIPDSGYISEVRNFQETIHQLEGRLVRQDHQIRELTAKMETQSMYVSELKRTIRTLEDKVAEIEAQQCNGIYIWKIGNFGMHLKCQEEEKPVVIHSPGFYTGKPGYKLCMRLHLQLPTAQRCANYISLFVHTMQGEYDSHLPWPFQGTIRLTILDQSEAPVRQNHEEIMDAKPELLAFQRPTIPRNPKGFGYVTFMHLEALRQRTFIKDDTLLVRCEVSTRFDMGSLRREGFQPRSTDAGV
UniProt Q9NYG5, whole entry: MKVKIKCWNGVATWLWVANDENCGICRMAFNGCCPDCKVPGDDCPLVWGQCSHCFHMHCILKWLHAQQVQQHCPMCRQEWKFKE
UniProt Q9UJX6, whole entry: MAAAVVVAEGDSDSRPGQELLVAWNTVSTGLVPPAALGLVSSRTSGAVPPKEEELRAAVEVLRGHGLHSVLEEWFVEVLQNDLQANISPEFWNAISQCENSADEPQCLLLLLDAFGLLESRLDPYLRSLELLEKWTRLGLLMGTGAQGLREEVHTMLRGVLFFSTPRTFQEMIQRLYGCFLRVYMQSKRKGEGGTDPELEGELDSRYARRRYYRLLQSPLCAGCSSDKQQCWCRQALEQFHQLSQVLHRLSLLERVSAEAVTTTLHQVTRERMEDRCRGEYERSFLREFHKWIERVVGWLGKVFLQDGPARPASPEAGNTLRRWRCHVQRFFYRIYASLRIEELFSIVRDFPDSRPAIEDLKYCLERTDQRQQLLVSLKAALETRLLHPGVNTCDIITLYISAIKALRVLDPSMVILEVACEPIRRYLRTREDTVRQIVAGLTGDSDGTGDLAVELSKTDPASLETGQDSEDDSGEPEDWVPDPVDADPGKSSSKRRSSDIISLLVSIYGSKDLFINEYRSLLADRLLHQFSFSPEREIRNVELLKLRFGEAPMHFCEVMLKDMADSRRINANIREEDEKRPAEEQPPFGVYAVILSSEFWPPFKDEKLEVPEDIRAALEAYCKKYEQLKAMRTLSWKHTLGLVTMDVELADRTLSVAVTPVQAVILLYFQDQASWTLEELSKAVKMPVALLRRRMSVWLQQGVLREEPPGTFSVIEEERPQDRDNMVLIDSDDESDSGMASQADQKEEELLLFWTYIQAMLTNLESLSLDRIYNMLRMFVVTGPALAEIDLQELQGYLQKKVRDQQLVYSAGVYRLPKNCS
UniProt P62877, whole entry: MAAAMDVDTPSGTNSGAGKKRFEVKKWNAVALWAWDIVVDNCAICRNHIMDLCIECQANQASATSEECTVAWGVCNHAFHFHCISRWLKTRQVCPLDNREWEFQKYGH
UniProt Q13616, whole entry: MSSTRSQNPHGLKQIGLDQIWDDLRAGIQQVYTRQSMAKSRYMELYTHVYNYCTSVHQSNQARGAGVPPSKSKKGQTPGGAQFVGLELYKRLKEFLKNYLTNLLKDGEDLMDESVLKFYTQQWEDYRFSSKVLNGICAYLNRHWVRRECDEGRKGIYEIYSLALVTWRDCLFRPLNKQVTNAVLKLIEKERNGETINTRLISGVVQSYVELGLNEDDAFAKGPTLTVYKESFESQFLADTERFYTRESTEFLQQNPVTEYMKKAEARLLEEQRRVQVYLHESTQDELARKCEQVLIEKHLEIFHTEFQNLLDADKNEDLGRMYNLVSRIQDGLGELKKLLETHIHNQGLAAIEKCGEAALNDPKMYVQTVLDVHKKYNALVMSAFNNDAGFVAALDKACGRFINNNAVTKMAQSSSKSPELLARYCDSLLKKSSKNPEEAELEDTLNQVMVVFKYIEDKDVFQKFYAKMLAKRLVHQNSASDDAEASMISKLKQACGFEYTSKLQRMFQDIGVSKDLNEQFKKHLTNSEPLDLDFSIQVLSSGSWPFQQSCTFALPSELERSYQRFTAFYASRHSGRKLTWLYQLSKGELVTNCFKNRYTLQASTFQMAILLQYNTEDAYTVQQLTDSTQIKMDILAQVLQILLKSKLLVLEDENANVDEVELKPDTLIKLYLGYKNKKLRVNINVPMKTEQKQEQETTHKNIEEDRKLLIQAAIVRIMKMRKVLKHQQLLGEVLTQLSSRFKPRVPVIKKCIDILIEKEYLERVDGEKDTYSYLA

Structures are written as SMILES. Where two headings read alike, the source gives them in different places. Structures were worked out from names or drawings and are uncertain.

Experiment [1] addresses TRAF6/Uev1A/Ubc13 (Homo sapiens, UniProt Q9Y4K3). In words: TRAF6/Uev1A/Ubc13 plate-based ubiquitin ligase assay. To be noted: read-out: TRAF6/Ubc13 IC50.
Experiment [2] has as its target APC11/APC2 (Homo sapiens, UniProt Q9NYG5+Q9UJX6). In words: APC-11/APC-2 ligase assay (APC auto ubiquitination). Conditions: read-out: APC IC50; APC assay.
The subject of experiment [3] is A549 cells. The experiment in a line: Cell proliferation PAD assay, A549. The experiment is classed as cell-based.
Experiment [4] concerns H1299 cells. The experiment in a line: Cell proliferation PAD assay, H1299. The experiment is classed as cell-based.
The test system of experiment [5] is OVCAR8 cells. The experiment in a line: Cell proliferation PAD assay, OVCAR8. To be noted: read-out: OVCAR8 6pt, 48 hours. The experiment is classed as cell-based.
The subject of experiment [6] is UACC-257 cells. In words: Cell proliferation PAD assay, UACC-257. The experiment is classed as cell-based. To be noted: read-out: UACC257 6pt, 48 hours.
Experiment [7] addresses ROC1/CUL1 (Homo sapiens, UniProt P62877+Q13616). In words: ROC1/CUL1 ubiquitin ligase assay (SCF assay). The experiment is classed as biochemical. Conditions: read-out: SCF. The method, then:
Inhibition of ubiquitin ligase activity of E1+E2+E3 was measured using the protocol as described in WO 01/75145 with E3 as the ROC1/CUL1, ROC1/CUL2, or ROC2/CUL5 complex.
The wells of nickel-substrate 96-well plates (Pierce Chemical) are blocked with 100 μl of 1 casein/phosphate buffered saline (PBS) for 1 hour at room temperature, then washed with 200 μl of PBST (0.1% Tween-20 in PBS) 3 times. To each well is added the following Flag-ubiquitin (see above) reaction solution: 62.5 mM Tris pH 7.5, 6.25 mm MgCl2, 0.75 mM DTT, 2.5 mM ATP, 2.5 mM NaF1, 2.5 nM Okadaic acid, 100 ng Flag-ubiquitin (made as described above).
The buffer solution is brought to a final volume of 80 μl with Milipore-filtered water, followed by the addition of 10 μl DMSO.
To the above solution is then added 10 μl of ubiquitination enzymes in 20 mM Tris buffer, pH 7.5, and 5% glycerol. E2-Ubch5c and E3-His ROC1/Cul1, ROC1/CUL2, and ROC2/CUL5 are made as described in WO 01/75145. E1 is obtained commercially (Affiniti Research Products, Exeter, U. K.). The following amounts of each enzyme are used for these assays: 5 ng/well of E1; […] E2; and 100 ng/well His-E3. Varying amounts of compounds according to the invention are added and the reaction allowed to proceed at room temperature for 1 hour.
Following the ubiquitination reaction, the wells are washed with 200 μl of PBST 3 times. For measurement of the enzyme-bound ubiquitin, 100 gel of Mouse anti-Flag (1:10,000) and anti-Mouse Ig-HRP (1:15, 000) in PBST are added to each well and allowed to incubate at room temperature for 1 hour. The wells are then washed with 200 μl of PBST 3 times, followed by the addition of 100 μl of luminol substrate (1/5 dilution). Luminescence for each well is then measured using a fluorimeter.
Table 2 below illustrates the inhibitory activity of the compounds of the invention determined by the TRAF6/Uev1A/Ubc13 assay as well as in the ICAM, APC and the ROC1/CUL1 Ubiquitin Ligase Assay (SCF Assay). The IC50 values were determined using a various concentrations of the compounds.

The test system of experiment [8] is ICAM-1 expression in A549 cells. The experiment in a line: ICAM assay (IL-1 induced ICAM-1/CD54 expression in A549 cells). Conditions: read-out: ICAM. The experiment is classed as cell-based, human.
Where [9] appears, read: read-out: A549 3pt, 3pt, 48 hours.
The mark [10] stands for this setting: read-out: H1299 3pt, 3pt, 48 hours.
Where [11] appears, read: read-out: A549 6pt, 6pt, 48 hours.
Where [12] appears, read: read-out: H1299 6pt, 6pt, 48 hours.

As to `O=[N+]([O-])c1ccc(Oc2ccc(S(=O)(=O)Nc3cccc4nsnc34)cc2Cl)c(C(F)(F)F)c1`, the IC50 was 1 to 20 µM in experiment [1]; 1 to 20 µM in experiment [2]; 1 to 20 µM in experiment [3] (setting [9]); 1 to 20 µM in experiment [4] (setting [10]); 1 to 20 µM in experiment [5]; over 20 µM in experiment [6].

On to `Cc1cccc(N2CCN(S(=O)(=O)c3c(Sc4cccc5cccnc45)ccc4nonc34)CC2)n1`, for which the IC50 in experiment [1] is 1 to 20 µM; in experiment [7] it was over 20 µM; in experiment [3] (setting [9]), 1 to 20 µM; in experiment [4] (setting [10]), over 20 µM.

On to `O=S(=O)(c1c(Cl)ccc2nonc12)N1CCC2(CC1)OCc1ccccc12`, for which the IC50 was 1 to 20 µM in experiment [1]; over 20 µM in experiment [8]; over 20 µM in experiment [7]; under 1 µM in experiment [3] (setting [9]); 1 to 20 µM in experiment [4] (setting [10]).

As for `O=S(=O)(c1c(Sc2cccc3cccnc23)ccc2nonc12)N1CCN(c2cnccn2)CC1`, the IC50 in experiment [1] was over 20 µM; in experiment [8] it was over 20 µM; in experiment [3] (setting [9]) it was 1 to 20 µM; in experiment [4] (setting [10]), 1 to 20 µM.

Regarding `O=S(=O)(c1ccc(F)c2nonc12)N1CCC2(CC1)OCc1ccccc12`, the IC50 is 1 to 20 µM in experiment [1], over 20 µM in experiment [7], 1 to 20 µM in experiment [3] (setting [9]) and 1 to 20 µM in experiment [4] (setting [10]).

`CC(=O)C1(c2ccccc2)CCN(S(=O)(=O)c2ccc(Cl)c3nonc23)CC1`: the IC50 in experiment [1] is over 20 µM; in experiment [3] (setting [9]) it was 1 to 20 µM; in experiment [3] (setting [11]) it was under 1 µM; in experiment [4] (setting [10]) it was under 1 µM; in experiment [4] (setting [12]) it was under 1 µM.

`O=S(=O)(c1ccc(Cl)c2nonc12)N1CCC2(CC1)OCc1ccccc12`: the IC50 in experiment [1] is 1 to 20 µM; in experiment [8] it was over 20 µM; in experiment [7], over 20 µM; in experiment [3] (setting [9]) it was 1 to 20 µM; in experiment [4] (setting [10]) it was 1 to 20 µM.

Regarding `O=S(=O)(Nc1ccc(Oc2ccc(F)cc2)c(Br)c1)c1cccc2nonc12`, the IC50 in experiment [1], in experiment [3] (setting [9]), in experiment [3] (setting [11]), in experiment [4] (setting [10]), in experiment [4] (setting [12]) and in experiment [5] was over 20 µM throughout. Besides, in experiment [6], the IC50 is over 20 µM.

With `CN1CCN(S(=O)(=O)c2ccc(Sc3ccc4ccccc4c3)c3nonc23)CC1`, the IC50 was 1 to 20 µM in experiment [1], over 20 µM in experiment [7], 1 to 20 µM in experiment [3] (setting [9]) and 1 to 20 µM in experiment [4] (setting [10]).

Regarding `O=S(=O)(c1ccc(Sc2cccc3cccnc23)c2nonc12)N1CCC(O)(c2ccc(Cl)cc2)CC1`, the IC50 in experiment [1] was under 1 µM; in experiment [3] (setting [9]) it was over 20 µM; in experiment [3] (setting [11]), 1 to 20 µM; in experiment [4] (setting [10]) it was over 20 µM; in experiment [4] (setting [12]), 1 to 20 µM.

With `O=S(=O)(Nc1ccc(F)cc1)c1ccc(N2CCOCC2)c2nonc12`, the IC50 in experiment [1], in experiment [8] and in experiment [2] was over 20 µM throughout.

Turning to `COc1ccccc1Sc1ccc(S(=O)(=O)N2CCN(c3ccccc3)CC2)c2nonc12`, the IC50 in experiment [1] lay within 1 to 20 µM.

Regarding `O=S(=O)(c1ccc(Oc2cccc3cccnc23)c2nonc12)N1CCN(c2ccccc2)CC1`, the values for the IC50 in experiment [1] and in experiment [7] were 1 to 20 µM and over 20 µM, respectively.

Turning to `O=S(=O)(Nc1cccc2nsnc12)c1ccc(Oc2ccccc2)cn1`, the IC50 in experiment [1], in experiment [3] (setting [9]) and in experiment [4] (setting [10]) was over 20 µM throughout.
